This sample is rich in variants without activity.
B1: tRNA (parent)
chain: GUUCCGUUGGCGUAAUGGUAACGCGUCUCCCUCCUAAGGAGAAGACUGCGGGUUCGAGUCCCGUACGGAACG

Variants of: B1
Assay: yeast fitness relative to wild type (ratio to wild type); higher = fitter; tRNA-Arg(CCU), competitive growth, 37 C, YPD
Summary of the method: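 For this measurement, the tRNA-Arg(CCU) gene was varied by chemical synthesis at a 3% per-site mutation rate across 69 sites, and each variant was placed at the native genomic locus in Saccharomyces cerevisiae. The pooled strains went through a 24-hour competition in YPD at 37°C in six parallel replicates, with amplicons from start and end populations read by 100-nucleotide paired-end sequencing. Darwinian fitness relative to wild type followed from the change in each genotype's frequency. Genotypes needed ≥ 100 starting reads, and estimates < 0.5 were set to 0.5.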

Row | Variant | yeast fitness
1 | GUUCCGUUGGCGUAAUGGUAACGCGUCUCCCCCCUAAGGAGAAGACUGCGGGUUCGAGUCGCGUACGGCACG [U32C C61G A69C] | ≤ 0.5
2 | GUUCCGUUGGCGUAAUGGUAACGCGUCUCCCCCCUAAGGAGAAGACUGCGGCUUCGAGUCCCGUACGGAACG [U32C G52C] | 0.602
3 | GUUCCGUUGGCGUAAUGGUAACGCGUCUCCCCCCUAAGGAGAAGACAGCGGGUUCGAGUCCCGUACGGAACG [U32C U47A] | 0.9
4 | GUUCCGUUGGCGUAAUGGUAACGCGUCUCCCGCUUAAGGAGAAGACUGCGGGUUCGGGUCCCGUACGGAACG [U32G C34U A57G] | 0.561
5 | GUUCCGUUGGCGUAAUGGUAACGCGUCUCCCGCUUAAGGAGAAGAUUGCGGGUUCGGGUCCCGUACGGAACG [U32G C34U C46U A57G] | ≤ 0.5
6 | GUUCCGUUGGCGUAAUGGUAACGCGUCUCCCGCCUAAAGAGAAGACUGCGGGUUCCAGUCCCGUACGGAACG [U32G G38A G56C] | ≤ 0.5
7 | GUUCCGUUGGCGUAAUGGUAACGCGUCUCCCGCCUAAGCAGAAGACUGCGGCUUCAAGUCCCGUACGGAACG [U32G G39C G52C G56A] | ≤ 0.5
8 | GUUCCGUUGGCGUAAUGGUAACGCGUCUCCCGCCUAAGGACAAGAUUGCGGGUUCGAGUCCCGUUCGGAACG [U32G G41C C46U A65U] | ≤ 0.5
9 | GUUCCGUUGGCGUAAUGGUAACGCGUCUCCCGCCUAAGGAGAAGACUGCGGGUUCGAGUCCCGUACGCGACG [U32G G68C A69G] | ≤ 0.5
10 | GUUCCGUUGGCGUAAUGGUAACGCGUCUCCCGCCAGAGGAGAAGACUGCGGGUUCGAGUCCCGUAUGGAACG [U32G U35A A36G C66U] | ≤ 0.5
11 | GUUCCGUUGGCGUAAUGGUAACGCGUCUCCCUACUAAGGUGAAGACUGCGGGUUCGAGUCCCGUACGGAACG [C33A A40U] | 0.741
12 | GUUCCGUUGGCGUAAUGGUAACGCGUCUCCCUACUAAGGAGCAGCCGGCGGGUUCGAGUCCCGUACGGAACG [C33A A42C A45C U47G] | 0.515
13 | GUUCCGUUGGCGUAAUGGUAACGCGUCUCCCUACUAAGGAGGAGACUGCGGGUUCGAGUCCCGUACGAAUCG [C33A A42G G68A A70U] | ≤ 0.5
14 | GUUCCGUUGGCGUAAUGGUAACGCGUCUCCCUACUAAGGAGAGGCCUGCGGGUCCGAGUACCGUACGGAACG [C33A A43G A45C U54C C60A] | ≤ 0.5
15 | GUUCCGUUGGCGUAAUGGUAACGCGUCUCCCUACUAAGGAGAAGACUGCGGGUUCGGGUUCCGUACGGAACG [C33A A57G C60U] | ≤ 0.5
16 | GUUCCGUUGGCGUAAUGGUAACGCGUCUCCCUACUAAGGAGAAGAUUGCGGGUUCGAGCCCCGUACGCAACG [C33A C46U U59C G68C] | ≤ 0.5
17 | GUUCCGUUGGCGUAAUGGUAACGCGUCUCCCUACUAAGGAGAAGACUGCGGGUGCGAGUCCCAUACGGAACG [C33A U54G G63A] | ≤ 0.5
18 | GUUCCGUUGGCGUAAUGGUAACGCGUCUCCCUGCUAAGGUGAAGACUGCGGGUUCGAGUCCCGUCCGGAACG [C33G A40U A65C] | ≤ 0.5
19 | GUUCCGUUGGCGUAAUGGUAACGCGUCUCCCUGCUAAGGAGGAGACUGCGGAUUCGAGUCCGGUACGGAUCG [C33G A42G G52A C62G A70U] | ≤ 0.5

Row | Variant | yeast fitness
20 | GUUCCGUUGGCGUAAUGGUAACGCGUCUCCCUGCUAAGGAGUAGACUGCGGGUUCUAGUCCUGUACGGAACG [C33G A42U G56U C62U] | ≤ 0.5
21 | GUUCCGUUGGCGUAAUGGUAACGCGUCUCCCUGCUAAGGAGACGACUGCGGGUUCGAGUCCCGUACGAAACG [C33G A43C G68A] | ≤ 0.5
22 | GUUCCGUUGGCGUAAUGGUAACGCGUCUCCCUGUUAAGGAGAAGACUGCGGGUUCGAGUCUCGUACACAACG [C33G C34U C61U G67A G68C] | ≤ 0.5
23 | GUUCCGUUGGCGUAAUGGUAACGCGUCUCCCUUCUAAGGAGAGGACUGCGGGUUCGAGUCCCGUACCGAACG [C33U A43G G67C] | ≤ 0.5
24 | GUUCCGUUGGCGUAAUGGUAACGCGUCUCCCUUAUAAGGAGACGACUACGGGUUCGAGUCCCGUACGGAACG [C33U C34A A43C G48A] | ≤ 0.5
25 | GUUCCGUUGGCGUAAUGGUAACGCGUCUCCCUUUUAACGAGAAGACUGCGGGUUCGAGUCCCGUACGGAACG [C33U C34U G38C] | ≤ 0.5
26 | GUUCCGUUGGCGUAAUGGUAACGCGUCUCCCUCAUAAGGGGAAGACAGCGGGUUCGAGUCCCGUAGGGCACG [C34A A40G U47A C66G A69C] | ≤ 0.5
27 | GUUCCGUUGGCGUAAUGGUAACGCGUCUCCCUCAUAAGGAGAAGCCUGAGGGUUCGAGUCCCGUACGGAACG [C34A A45C C49A] | ≤ 0.5
28 | GUUCCGUUGGCGUAAUGGUAACGCGUCUCCCUCAUAAGGAGAAGGCUGCGGGUUCGUGUCCCGUAUGGAACG [C34A A45G A57U C66U] | ≤ 0.5
29 | GUUCCGUUGGCGUAAUGGUAACGCGUCUCCCUCAUAAGGAGAAGACUGCGGGUUGGAGUCCCGCCCGGAACG [C34A C55G U64C A65C] | ≤ 0.5
30 | GUUCCGUUGGCGUAAUGGUAACGCGUCUCCCUCAUAAGGAGAAGACUGCGGGUUCGAGUACCGUACGGAACG [C34A C60A] | ≤ 0.5
31 | GUUCCGUUGGCGUAAUGGUAACGCGUCUCCCUCAUAAGGAGAAGACUGCGGGUUCGAGUCCUGUGCGGAACG [C34A C62U A65G] | ≤ 0.5
32 | GUUCCGUUGGCGUAAUGGUAACGCGUCUCCCUCAUAAGCAGAAGACUGCGGAUUCGAAUCCCGUACGGAACG [C34A G39C G52A G58A] | ≤ 0.5
33 | GUUCCGUUGGCGUAAUGGUAACGCGUCUCCCUCAUAAGGAGAAGACCGCGAGUUCGAGUCCCGUACAGAACG [C34A U47C G51A G67A] | ≤ 0.5
34 | GUUCCGUUGGCGUAAUGGUAACGCGUCUCCCUCAUAAGGAGAAGACCGCGGGUUCGAGUCCCGUACGCAACG [C34A U47C G68C] | ≤ 0.5
35 | GUUCCGUUGGCGUAAUGGUAACGCGUCUCCCUCGUAAGGAGUAACCUCCGGGUUCGAGUCCCGAACGGAACG [C34G A42U G44A A45C G48C U64A] | ≤ 0.5
36 | GUUCCGUUGGCGUAAUGGUAACGCGUCUCCCUCGUAAGGAGACGACUGCUGGUUCGAGUCCCGUACGGAACG [C34G A43C G50U] | ≤ 0.5
37 | GUUCCGUUGGCGUAAUGGUAACGCGUCUCCCUCGUAAGGAGAUGACUGCGGAUUCGAGUCCCGUACGGAACG [C34G A43U G52A] | ≤ 0.5
38 | GUUCCGUUGGCGUAAUGGUAACGCGUCUCCCUCGUAAGGAGAAGACUGCGGGUUCGAGUCCCGUAAGGCACG [C34G C66A A69C] | 0.599
